Experimental data published in publication doi:10.1101/491274.
These are yes or no findings as the source states them, for the method shown. Binding seen in cells or lysates may run through a third protein. For part of these data: Sequences can lack the tags named with a protein.

By UniProt entry, the sequences of proteins in these tests, tags left out. Where a name states a change or a piece, a line headed by the entry shows the natural chain unless it says otherwise.
UniProt Q71RC2: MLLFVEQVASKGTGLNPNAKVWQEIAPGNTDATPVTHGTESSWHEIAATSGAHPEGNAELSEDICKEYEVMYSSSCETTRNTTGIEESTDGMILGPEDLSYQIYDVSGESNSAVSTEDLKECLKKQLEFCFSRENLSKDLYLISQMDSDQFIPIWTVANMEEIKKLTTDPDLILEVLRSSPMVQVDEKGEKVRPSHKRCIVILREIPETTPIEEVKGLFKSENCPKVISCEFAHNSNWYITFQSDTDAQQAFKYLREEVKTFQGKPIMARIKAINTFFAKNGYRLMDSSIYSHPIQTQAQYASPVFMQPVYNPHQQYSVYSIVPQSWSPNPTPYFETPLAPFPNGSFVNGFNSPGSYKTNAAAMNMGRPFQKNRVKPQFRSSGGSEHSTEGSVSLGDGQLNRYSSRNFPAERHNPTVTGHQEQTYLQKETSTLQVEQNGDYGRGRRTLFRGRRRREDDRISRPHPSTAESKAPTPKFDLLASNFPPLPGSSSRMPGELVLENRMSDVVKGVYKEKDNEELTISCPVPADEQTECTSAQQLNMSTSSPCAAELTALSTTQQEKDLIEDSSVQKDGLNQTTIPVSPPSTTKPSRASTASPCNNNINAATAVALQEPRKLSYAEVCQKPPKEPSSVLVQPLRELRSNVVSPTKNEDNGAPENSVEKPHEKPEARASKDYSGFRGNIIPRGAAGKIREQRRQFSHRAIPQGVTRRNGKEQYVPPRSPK
UniProt Q92615: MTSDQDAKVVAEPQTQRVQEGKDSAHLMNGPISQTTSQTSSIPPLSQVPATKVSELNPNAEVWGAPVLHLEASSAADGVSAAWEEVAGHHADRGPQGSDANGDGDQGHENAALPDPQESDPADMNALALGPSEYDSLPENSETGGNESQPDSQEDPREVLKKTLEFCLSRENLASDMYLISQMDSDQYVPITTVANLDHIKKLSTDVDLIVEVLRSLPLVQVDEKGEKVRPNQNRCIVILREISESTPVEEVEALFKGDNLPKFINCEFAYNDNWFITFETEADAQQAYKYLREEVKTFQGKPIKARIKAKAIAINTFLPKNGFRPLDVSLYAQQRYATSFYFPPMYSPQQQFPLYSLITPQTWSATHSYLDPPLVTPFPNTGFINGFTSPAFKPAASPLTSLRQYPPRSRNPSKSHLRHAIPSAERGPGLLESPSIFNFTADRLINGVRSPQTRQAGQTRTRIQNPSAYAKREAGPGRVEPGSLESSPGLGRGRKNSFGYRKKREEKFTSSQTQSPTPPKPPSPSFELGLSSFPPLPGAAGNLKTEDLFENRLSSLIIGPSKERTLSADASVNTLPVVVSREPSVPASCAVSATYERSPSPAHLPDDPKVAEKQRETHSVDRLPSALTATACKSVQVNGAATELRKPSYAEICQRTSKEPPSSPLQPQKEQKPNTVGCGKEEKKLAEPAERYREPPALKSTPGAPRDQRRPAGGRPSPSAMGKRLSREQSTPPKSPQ
UniProt Q659C4: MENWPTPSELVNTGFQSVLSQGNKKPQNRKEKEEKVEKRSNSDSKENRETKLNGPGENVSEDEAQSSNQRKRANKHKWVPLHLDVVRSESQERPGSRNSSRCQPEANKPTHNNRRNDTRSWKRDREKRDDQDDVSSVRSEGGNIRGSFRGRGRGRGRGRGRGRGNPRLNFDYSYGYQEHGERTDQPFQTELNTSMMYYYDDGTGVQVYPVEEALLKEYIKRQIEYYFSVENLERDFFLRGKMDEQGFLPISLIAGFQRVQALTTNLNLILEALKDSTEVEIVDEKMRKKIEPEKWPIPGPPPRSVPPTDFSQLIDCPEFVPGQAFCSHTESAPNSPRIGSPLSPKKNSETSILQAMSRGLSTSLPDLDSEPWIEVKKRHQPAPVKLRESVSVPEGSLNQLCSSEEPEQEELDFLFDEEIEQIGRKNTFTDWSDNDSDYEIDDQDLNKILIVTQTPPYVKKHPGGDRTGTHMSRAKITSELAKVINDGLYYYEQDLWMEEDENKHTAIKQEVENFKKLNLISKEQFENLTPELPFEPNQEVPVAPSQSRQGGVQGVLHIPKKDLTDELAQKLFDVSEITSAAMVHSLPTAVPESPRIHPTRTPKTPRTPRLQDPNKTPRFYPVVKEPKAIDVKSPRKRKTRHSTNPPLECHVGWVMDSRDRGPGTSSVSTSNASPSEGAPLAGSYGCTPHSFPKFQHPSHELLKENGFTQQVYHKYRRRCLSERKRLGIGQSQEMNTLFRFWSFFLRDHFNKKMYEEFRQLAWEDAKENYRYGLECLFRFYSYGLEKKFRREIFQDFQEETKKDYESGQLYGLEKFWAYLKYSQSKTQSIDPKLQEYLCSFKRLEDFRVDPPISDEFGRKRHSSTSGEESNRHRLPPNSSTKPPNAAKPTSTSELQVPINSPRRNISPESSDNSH
UniProt Q8N122: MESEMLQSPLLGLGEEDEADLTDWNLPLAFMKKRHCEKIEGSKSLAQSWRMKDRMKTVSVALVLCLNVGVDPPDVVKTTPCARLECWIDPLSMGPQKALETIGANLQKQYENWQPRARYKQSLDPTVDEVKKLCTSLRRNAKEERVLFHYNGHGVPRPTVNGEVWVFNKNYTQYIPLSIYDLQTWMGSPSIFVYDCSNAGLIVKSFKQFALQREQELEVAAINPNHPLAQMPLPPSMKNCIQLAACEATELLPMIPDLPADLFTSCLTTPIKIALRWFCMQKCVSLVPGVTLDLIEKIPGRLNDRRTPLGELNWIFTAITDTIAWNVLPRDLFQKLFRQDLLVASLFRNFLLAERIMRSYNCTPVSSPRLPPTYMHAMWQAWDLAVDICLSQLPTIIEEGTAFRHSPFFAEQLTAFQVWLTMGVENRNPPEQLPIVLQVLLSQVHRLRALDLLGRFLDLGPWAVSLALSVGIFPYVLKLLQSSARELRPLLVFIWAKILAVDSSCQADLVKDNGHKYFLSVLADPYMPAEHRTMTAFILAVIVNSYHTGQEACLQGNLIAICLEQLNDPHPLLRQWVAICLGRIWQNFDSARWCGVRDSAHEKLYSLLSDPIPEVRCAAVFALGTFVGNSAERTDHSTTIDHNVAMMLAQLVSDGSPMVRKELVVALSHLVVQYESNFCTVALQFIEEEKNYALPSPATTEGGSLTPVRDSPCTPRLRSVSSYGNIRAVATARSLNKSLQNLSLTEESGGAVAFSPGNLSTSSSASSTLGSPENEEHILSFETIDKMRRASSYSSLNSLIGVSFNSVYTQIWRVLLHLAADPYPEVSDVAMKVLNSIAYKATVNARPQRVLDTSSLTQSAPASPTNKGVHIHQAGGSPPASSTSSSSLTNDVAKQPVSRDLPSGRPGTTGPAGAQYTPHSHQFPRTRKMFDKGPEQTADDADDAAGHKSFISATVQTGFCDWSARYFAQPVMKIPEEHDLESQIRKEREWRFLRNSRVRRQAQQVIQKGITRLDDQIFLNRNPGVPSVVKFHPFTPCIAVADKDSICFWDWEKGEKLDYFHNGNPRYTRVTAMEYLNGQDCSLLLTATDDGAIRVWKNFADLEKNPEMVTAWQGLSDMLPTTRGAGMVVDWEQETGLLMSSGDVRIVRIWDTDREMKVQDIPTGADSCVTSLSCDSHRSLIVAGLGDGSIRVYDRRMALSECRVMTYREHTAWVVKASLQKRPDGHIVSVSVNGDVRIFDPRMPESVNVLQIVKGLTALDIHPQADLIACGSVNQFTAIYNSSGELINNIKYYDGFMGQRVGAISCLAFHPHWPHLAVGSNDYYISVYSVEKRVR

Tests used:
Experiment in all cases: co-IP
[1] = biological target: T1, human wildtype LARP6 (precipitated with anti-FLAG antibody) (human) (UniProt Q9BRS8)
T1 sequence: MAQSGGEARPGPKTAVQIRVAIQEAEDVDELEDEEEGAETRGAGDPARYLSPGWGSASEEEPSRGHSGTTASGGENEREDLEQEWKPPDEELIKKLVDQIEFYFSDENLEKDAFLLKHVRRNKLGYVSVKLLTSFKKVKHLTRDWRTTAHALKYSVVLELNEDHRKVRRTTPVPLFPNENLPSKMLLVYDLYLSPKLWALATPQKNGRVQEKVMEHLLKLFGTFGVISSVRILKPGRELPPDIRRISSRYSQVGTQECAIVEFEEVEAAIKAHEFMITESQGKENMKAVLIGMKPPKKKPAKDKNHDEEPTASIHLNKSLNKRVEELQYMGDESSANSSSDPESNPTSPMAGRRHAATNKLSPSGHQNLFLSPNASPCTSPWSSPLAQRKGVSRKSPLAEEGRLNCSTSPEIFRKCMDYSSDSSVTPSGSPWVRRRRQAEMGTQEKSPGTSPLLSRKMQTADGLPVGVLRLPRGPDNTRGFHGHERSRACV

[2] = biological target: T2, FLAG-tagged human wildtype La (human) (UniProt P05455)
T2 sequence: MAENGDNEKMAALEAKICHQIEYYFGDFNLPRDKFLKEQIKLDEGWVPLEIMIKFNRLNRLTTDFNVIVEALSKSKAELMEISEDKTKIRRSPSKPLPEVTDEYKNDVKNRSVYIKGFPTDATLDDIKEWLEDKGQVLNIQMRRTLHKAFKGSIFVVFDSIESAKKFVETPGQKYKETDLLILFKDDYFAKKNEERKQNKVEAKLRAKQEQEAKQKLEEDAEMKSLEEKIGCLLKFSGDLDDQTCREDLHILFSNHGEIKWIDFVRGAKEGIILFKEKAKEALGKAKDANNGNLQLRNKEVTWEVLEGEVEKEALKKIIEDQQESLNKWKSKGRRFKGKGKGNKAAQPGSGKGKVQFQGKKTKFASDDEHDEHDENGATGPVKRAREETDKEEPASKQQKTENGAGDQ

[3] = biological target: T3, human wildtype LARP7 (precipitated with anti-FLAG antibody) (human) (UniProt Q4G0J3)
T3 sequence: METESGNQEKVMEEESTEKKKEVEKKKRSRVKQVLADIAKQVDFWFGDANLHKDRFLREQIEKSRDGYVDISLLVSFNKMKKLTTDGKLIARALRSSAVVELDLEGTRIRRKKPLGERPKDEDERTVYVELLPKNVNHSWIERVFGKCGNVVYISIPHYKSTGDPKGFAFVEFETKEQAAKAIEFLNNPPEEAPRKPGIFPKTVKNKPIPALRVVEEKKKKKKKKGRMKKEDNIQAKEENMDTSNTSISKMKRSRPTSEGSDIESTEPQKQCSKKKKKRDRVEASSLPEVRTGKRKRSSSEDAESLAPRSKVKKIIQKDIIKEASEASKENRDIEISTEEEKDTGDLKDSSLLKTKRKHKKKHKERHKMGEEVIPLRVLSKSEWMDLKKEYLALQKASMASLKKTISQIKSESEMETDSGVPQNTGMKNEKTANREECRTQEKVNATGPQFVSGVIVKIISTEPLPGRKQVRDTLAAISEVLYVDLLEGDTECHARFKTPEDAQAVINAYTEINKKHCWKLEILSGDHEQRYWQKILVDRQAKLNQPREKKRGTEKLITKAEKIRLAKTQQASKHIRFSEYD

[4] = biological target: FLAG-tagged human wildtype LARP4 (human) (UniProt Q71RC2)
[5] = biological target: FLAG-tagged human wildtype LARP5 (human) (UniProt Q92615)
[6] = biological target: human LARP2 R790L/E791D (FRREI replaced by the FRLDI sequence) (human) (UniProt Q659C4)

Measured: binding

endogenous RAPTOR (regulatory associated protein of mTOR) (from UniProt Q8N122 1-1335)
no binding: all assays above
